Test results as given in paper PMC11952830.
No constants are given. Whether binding was seen depends on the method and setting. Some binding calls cover weakened binding; strength is not graded here.

By UniProt entry, the sequences of proteins in these tests, tags left out.
UniProt P60953: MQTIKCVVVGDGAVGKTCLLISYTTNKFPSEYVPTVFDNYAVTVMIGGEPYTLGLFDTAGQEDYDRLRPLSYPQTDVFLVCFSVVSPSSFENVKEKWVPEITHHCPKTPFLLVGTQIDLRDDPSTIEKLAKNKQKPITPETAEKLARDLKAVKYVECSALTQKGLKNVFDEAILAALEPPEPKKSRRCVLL

How the values were obtained:
Cdc42 [1] = molecular target: Cdc42 (UniProt P60953); test: SEC; analytical gel filtration, Superdex 200 Increase 10/300; 7 uM Cdc42EP3, 7 uM GMPPNP-loaded Cdc42, or both; both purified
Cdc42 [2] = molecular target: Cdc42 (UniProt P60953); test: SEC; analytical gel filtration, Superdex 200 Increase 10/300; 7 uM Cdc42EP3, 7 uM GDP-loaded Cdc42, or both; both purified
[3] = molecular target: T1, SEPT2/6/7 (wild type septin complex; hexamers polymerized to filaments) (UniProt Q15019); test: co-sedimentation; 7 uM SEPT2/6/7 filaments and 1 uM Cdc42EP3 in 100 mM KCl, 1 mM MgCl2, 10 mM HEPES pH 7.0, 1 mM DTT; 1 h on ice; 21,130g; both purified
T1 sequence 1: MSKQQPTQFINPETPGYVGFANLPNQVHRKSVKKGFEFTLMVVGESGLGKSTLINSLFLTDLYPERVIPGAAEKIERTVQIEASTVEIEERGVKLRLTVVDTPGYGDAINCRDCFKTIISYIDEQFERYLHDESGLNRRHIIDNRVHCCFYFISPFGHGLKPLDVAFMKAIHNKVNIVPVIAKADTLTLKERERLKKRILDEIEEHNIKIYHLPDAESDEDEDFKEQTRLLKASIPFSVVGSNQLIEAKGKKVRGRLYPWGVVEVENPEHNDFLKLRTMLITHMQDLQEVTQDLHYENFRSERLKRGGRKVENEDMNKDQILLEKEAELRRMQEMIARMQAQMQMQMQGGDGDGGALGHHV
T1 sequence 2: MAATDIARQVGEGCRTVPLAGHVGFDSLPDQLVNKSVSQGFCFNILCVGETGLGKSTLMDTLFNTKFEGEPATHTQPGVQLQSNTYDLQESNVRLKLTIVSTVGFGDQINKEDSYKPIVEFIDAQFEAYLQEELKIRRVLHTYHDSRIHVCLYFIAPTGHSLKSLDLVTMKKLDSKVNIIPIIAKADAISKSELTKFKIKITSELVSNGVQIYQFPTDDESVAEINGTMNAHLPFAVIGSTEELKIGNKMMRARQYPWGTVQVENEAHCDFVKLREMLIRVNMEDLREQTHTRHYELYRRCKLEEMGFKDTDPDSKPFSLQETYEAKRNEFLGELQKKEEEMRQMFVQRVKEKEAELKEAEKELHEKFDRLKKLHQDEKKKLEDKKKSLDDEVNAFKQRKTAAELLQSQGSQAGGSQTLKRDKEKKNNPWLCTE
T1 sequence 3: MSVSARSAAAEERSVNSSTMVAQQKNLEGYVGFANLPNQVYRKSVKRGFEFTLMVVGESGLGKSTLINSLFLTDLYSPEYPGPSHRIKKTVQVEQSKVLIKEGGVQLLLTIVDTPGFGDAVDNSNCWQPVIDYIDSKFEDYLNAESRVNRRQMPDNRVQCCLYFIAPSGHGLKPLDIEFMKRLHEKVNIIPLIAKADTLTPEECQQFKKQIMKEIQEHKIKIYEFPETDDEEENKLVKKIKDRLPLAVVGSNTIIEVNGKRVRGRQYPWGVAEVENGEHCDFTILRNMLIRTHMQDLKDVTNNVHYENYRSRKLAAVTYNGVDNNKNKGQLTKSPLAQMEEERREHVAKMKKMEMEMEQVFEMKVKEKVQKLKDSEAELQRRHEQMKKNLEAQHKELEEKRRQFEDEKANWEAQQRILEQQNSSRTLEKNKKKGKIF

[4] = molecular target: Cdc42EP3 (wild type, full length, recombinant) (human) (UniProt Q9UKI2); test: AUC; sedimentation velocity; Cdc42EP3 at 5, 3.75 and 1.67 uM in 1x KMEI, 42,000 RPM, 20 C, absorbance at 232 nm; both purified

binding (Cdc42 [1]): binds | binding [3]: binds | binding [4]: no binding (tested: 5 uM)
Substance: Cdc42EP3 (wild type, full length, recombinant) (from UniProt Q9UKI2 1-254)
binding (Cdc42 [2]): no binding (condition: GDP-loaded Cdc42 (7 uM each))
